Results published in publication PMC8403768.
Results are given in words; binding and its absence hold for the method and conditions named. In cells and extracts the contact can be indirect. A yes stands for co-enrichment or nearness to the bait. Other partners may have been found.

Chains of the proteins cited; added tags and fusions are not shown.
UniProt P35637: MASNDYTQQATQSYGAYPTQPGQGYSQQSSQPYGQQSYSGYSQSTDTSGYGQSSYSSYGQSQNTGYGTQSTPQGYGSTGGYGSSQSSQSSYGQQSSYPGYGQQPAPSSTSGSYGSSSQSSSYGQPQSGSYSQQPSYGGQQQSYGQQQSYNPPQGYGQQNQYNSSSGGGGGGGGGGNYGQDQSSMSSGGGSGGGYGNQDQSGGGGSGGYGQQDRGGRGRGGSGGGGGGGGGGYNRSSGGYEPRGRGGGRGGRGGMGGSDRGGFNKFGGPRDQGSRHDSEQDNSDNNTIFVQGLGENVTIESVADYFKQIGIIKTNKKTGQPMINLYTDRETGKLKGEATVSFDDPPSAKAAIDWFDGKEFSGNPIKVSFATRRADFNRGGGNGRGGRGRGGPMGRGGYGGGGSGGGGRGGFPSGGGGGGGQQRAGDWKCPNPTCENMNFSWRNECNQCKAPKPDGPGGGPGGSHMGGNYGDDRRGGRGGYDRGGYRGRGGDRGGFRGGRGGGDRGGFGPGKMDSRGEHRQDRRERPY

Biological target: Fused in sarcoma (FUS) (human (endogenous in U-2 OS)) (UniProt P35637)
Experiment: affinity purification with mass spectrometry; rapid IP MS of endogenous proteins: U-2 OS cells fixed with 1% formaldehyde, nuclei digested with benzonase, IP with anti-FUS antibody (Bethyl A300-302A) and protein G Dynabeads, RIPA washes, label-free quantitative MS; FUS-/- cells as negative control

B1: UHRF1 (protein, UniProt Q96T88 1-793)
chain: MWIQVRTMDGRQTHTVDSLSRLTKVEELRRKIQELFHVEPGLQRLFYRGKQMEDGHTLFDYEVRLNDTIQLLVRQSLVLPHSTKERDSELSDTDSGCCLGQSESDKSSTHGEAAAETDSRPADEDMWDETELGLYKVNEYVDARDTNMGAWFEAQVVRVTRKAPSRDEPCSSTSRPALEEDVIYHVKYDDYPENGVVQMNSRDVRARARTIIKWQDLEVGQVVMLNYNPDNPKERGFWYDAEISRKRETRTARELYANVVLGDDSLNDCRIIFVDEVFKIERPGEGSPMVDNPMRRKSGPSCKHCKDDVNRLCRVCACHLCGGRQDPDKQLMCDECDMAFHIYCLDPPLSSVPSEDEWYCPECRNDASEVVLAGERLRESKKKAKMASATSSSQRDWGKGMACVGRTKECTIVPSNHYGPIPGIPVGTMWRFRVQVSESGVHRPHVAGIHGRSNDGAYSLVLAGGYEDDVDHGNFFTYTGSGGRDLSGNKRTAEQSCDQKLTNTNRALALNCFAPINDQEGAEAKDWRSGKPVRVVRNVKGGKNSKYAPAEGNRYDGIYKVVKYWPEKGKSGFLVWRYLLRRDDDEPGPWTKEGKDRIKKLGLTMQYPEGYLEALANREREKENSKREEEEQQEGGFASPRTGKGKWKRKSAGGGPSRAGSPRRTSKKTKVEPYSLTAQQSSLIREDKSNAKLWNEVLASLKDRPASGSPFQLFLSKVEETFQCICCQELVFRPITTVCQHNVCKDCLDRSFRAQVFSCPACRYDLGRSYAMQVNQPLQTVLNQLFPGYGNGR
binding: binds
